B1: WTred: wild-type human Ngb with reduced cysteines, both heme isomers (protein, UniProt Q9NPG2 1-151, looked up)
Neuroglobin: MERPEPELIRQSWRAVSRSPLEHGTVLFARLFALEPDLLPLFQYNCRQFSSPEDCLSSPEFLDHIRKVMLVIDAAVTNVEDLSSLEEYLASLGRKHRAVGVKLSSFSTVGESLLYMLEKCLGPAFTPATRAAWSQLYGAVVQAMSRGWDGE
modifications: reduced cysteines
notes: wild-type human Ngb with reduced cysteines, both heme isomers
- ratio k obs^A/k obs^B of on-rate values (A isomer versus B isomer): 2.2
- ratio K d,B/K d,A (B isomer versus A isomer): 2.1
